# According to publication PMC7819943, “Rice protein-binding microarrays: a tool to detect cis-acting elements near promoter regions in rice”:
# Sequences of proteins named here, by UniProt entry; tags and fusion partners are left off.
# UniProt Q0JBA9, entry or part of it: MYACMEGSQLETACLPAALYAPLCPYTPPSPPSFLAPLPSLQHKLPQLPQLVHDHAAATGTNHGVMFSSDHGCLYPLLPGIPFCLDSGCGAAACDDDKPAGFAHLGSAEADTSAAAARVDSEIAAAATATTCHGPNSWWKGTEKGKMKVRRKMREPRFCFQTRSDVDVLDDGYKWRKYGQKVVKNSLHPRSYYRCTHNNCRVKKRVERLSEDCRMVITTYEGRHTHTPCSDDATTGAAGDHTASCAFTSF
# This is one part of the list.
# Target: OsWRKY34 (Oryza sativa, UniProt Q0JBA9 1-250)
# Test: protein-binding microarray (RPBM); PBS, 2% BSA, 51.3 ng/ul salmon testes DNA, 50 uM zinc acetate, 200 nM TF, 25 C, 1 h; high values mean tight binding
# Conditions: protein: recombinant; tags: N-terminal polyhistidine and DsRed monomer fusion (pET32a); label: CyDye5-dUTP incorporated in the synthesized complementary strand; 3' TTTTT single-stranded linker to array surface; dsDNA, one strand shown
# Procedure, shortened: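 Binding signal here means per-feature fluorescence intensity in arbitrary units. The values were read on an Axon 4000B scanner after a custom Agilent array, double-stranded by primer extension with Cy5-dUTP, was incubated with 200 nM protein at 25 °C for 1 h in PBS with 2% BSA, salmon testes DNA and 50 µM zinc acetate, then washed. The proteins were transcription factors with an N-terminal polyhistidine tag and DsRed, expressed in E. coli BL21-CodonPlus and purified on Ni–NTA.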
row,Sequence,binding signal
1,CATGGCCTAGTTGGGGTGTTGCGTATGTAATTTATCTGTCCGGAGTCACCTAGTGCAG,8100 fluorescence intensity (a.u.)
2,GCCCACTTCCCAACTGCTACGTCTGCTTGCGTCGAGAGTCCGGAGTCACCTAGTGCAG,10700 fluorescence intensity (a.u.)
3,ACTTTAAACACAACTTTTCTTTTTTTATATTTGCATAAATCGGAGTCACCTAGTGCAG,9210 fluorescence intensity (a.u.)
4,CGACCTGCATATCACTGTACATAAGCTCAAGTTTTAAATCCGGAGTCACCTAGTGCAG,8760 fluorescence intensity (a.u.)
5,CAACAAACTATTCTTTGCTGTGTCCATTTGTTTCCATTCCCGGAGTCACCTAGTGCAG,10400 fluorescence intensity (a.u.)
6,ATTTTTATACGGACTCTAAACTCTACTTTTAATTTTATTACGGAGTCACCTAGTGCAG,8490 fluorescence intensity (a.u.)
7,TGGGGTCGGCACACTGTATTCCAATCGACCAAACAATTGCCGGAGTCACCTAGTGCAG,8250 fluorescence intensity (a.u.)
8,ACATTACACTTTGCTTCATTTGCTTCACACTCACTCAAGCCGGAGTCACCTAGTGCAG,12200 fluorescence intensity (a.u.)
9,ACGCGGTATATGGATATCAGGATATGATGGGTACAAACTGCGGAGTCACCTAGTGCAG,9560 fluorescence intensity (a.u.)
10,AGCCATTTTCATTCCTATCTGGAACGCATGCATATTACACCGGAGTCACCTAGTGCAG,9430 fluorescence intensity (a.u.)
11,TTATACATTATTTTACTTGTTTATCCTAGTTGTTATAAATCGGAGTCACCTAGTGCAG,8192 fluorescence intensity (a.u.)
12,CTGCATTATGTTTGTTGATCACTGCATGCTTAATGCATATCGGAGTCACCTAGTGCAG,8480 fluorescence intensity (a.u.)
13,CCTTTTTTTATTTTTTTGGGGTTGCTTTGATGAGAGGCTGCGGAGTCACCTAGTGCAG,11400 fluorescence intensity (a.u.)
14,CAATGGGGCATCCAATTGTCACCGAACTTACCACCAAACCCGGAGTCACCTAGTGCAG,8280 fluorescence intensity (a.u.)
15,GTCACGCATAAAGTATTAATTATGTTTTATCATCTAACAACGGAGTCACCTAGTGCAG,8810 fluorescence intensity (a.u.)
16,CATCCACCTCATTGCTCTTATCCGATCACCATTAGTACTCCGGAGTCACCTAGTGCAG,11700 fluorescence intensity (a.u.)
17,TTGCTACCGGTACCATTACGAACGCCCTTAACAAGCCAACCGGAGTCACCTAGTGCAG,10100 fluorescence intensity (a.u.)
18,TGGTCTTGCTGGTTGCTGCGTATTTGGCTGTATTGGTTATCGGAGTCACCTAGTGCAG,8380 fluorescence intensity (a.u.)
19,ACGGTTATGCAACTTTTGCCAATTATAGATGGAGATTCACCGGAGTCACCTAGTGCAG,8390 fluorescence intensity (a.u.)
20,CTTATTATTGTCATAGTTTCACTTAGAACTAGGCTATGTTCGGAGTCACCTAGTGCAG,8400 fluorescence intensity (a.u.)
21,CTTTTCTTTCTTTTCTTTTCCTTTCTTTTTCCTTCTCTCTCGGAGTCACCTAGTGCAG,10900 fluorescence intensity (a.u.)
22,GTTAATGTGTTTTGTACTAAGTTACTTTAGTCAAACTATACGGAGTCACCTAGTGCAG,11600 fluorescence intensity (a.u.)
23,CACCACCCAACCCCAACGTACCCAGCGCCCAAAGTCAGACCGGAGTCACCTAGTGCAG,10300 fluorescence intensity (a.u.)
24,ACGGCTGAGAGTCACCCTGATATTTGAGTCCCGTTCGATCCGGAGTCACCTAGTGCAG,8650 fluorescence intensity (a.u.)
25,TTCCTGCGGTCCAATCAAACAACCATTCCTGTGTTTTTCCCGGAGTCACCTAGTGCAG,12900 fluorescence intensity (a.u.)
26,GCGTCCACCGCATACTCTCGCCTCTGAATCTTTGCGCCCACGGAGTCACCTAGTGCAG,9640 fluorescence intensity (a.u.)
27,CTTTTTTTTTCTTTTTGTTGTGCACAGCTCTTGTTCTCCACGGAGTCACCTAGTGCAG,8520 fluorescence intensity (a.u.)

row,Sequence,binding signal
1,GGAGGCAAGAGCGCGAGACGCGAGGAGAGGGTTAGGGTTTCGGAGTCACCTAGTGCAG,8740 fluorescence intensity (a.u.)
2,ATCTCACACGTTGCTCATCATGTCGTCACACTCTCCAGCTCGGAGTCACCTAGTGCAG,12900 fluorescence intensity (a.u.)
3,TTGCTTGCACTGTTTGATCACTCGTCTTATTCAAAAATTTCGGAGTCACCTAGTGCAG,8210 fluorescence intensity (a.u.)
4,ACTGCCGACCGCCGCTATCGTCGTCTCTCCCGCCACCCGTCGGAGTCACCTAGTGCAG,9290 fluorescence intensity (a.u.)
5,TGTCTTGTTTTTTAAAAAAAGGGCCCAACTTTTTTTTTTTCGGAGTCACCTAGTGCAG,8220 fluorescence intensity (a.u.)
6,CAAGCTCGTGTACTCGCAGTGCACTTTATTCACTATTTAACGGAGTCACCTAGTGCAG,9880 fluorescence intensity (a.u.)
7,GGCTGCATGTTACGCAAAGCTTTGTTTCGATATAGGGGTTCGGAGTCACCTAGTGCAG,10800 fluorescence intensity (a.u.)
8,CCAAATCCGGTGACTCCACCTTCGTTACACCTACAAGTTCCGGAGTCACCTAGTGCAG,8520 fluorescence intensity (a.u.)
9,AACTGAACATTACCTTTTTCTTTTTTACCCTACGTTAACGCGGAGTCACCTAGTGCAG,8760 fluorescence intensity (a.u.)
10,ATCATCACACTCTTGCATACGTGCTTGTTGTCAACTCCATCGGAGTCACCTAGTGCAG,9440 fluorescence intensity (a.u.)
11,ATCAGCGACCCATGTCCCTCTAATTTTACGTCAGAGGACTCGGAGTCACCTAGTGCAG,8460 fluorescence intensity (a.u.)
12,AAATCTTATGTTGTAAACCAACGCGCCTATTAACGGATTACGGAGTCACCTAGTGCAG,8720 fluorescence intensity (a.u.)
13,GCCATCCACACCTTTCCCCGTCGGCGCTTAAATCCTCCCACGGAGTCACCTAGTGCAG,9650 fluorescence intensity (a.u.)
14,TTTTTCAATTTTTGGTTAAAATTTTTGGGGCTTTTCTTCGCGGAGTCACCTAGTGCAG,8990 fluorescence intensity (a.u.)
15,TTCACTTAGGGTCCCTCTATTTGTGGCCTAGTCTGATTTTCGGAGTCACCTAGTGCAG,8430 fluorescence intensity (a.u.)
16,TCTCTCTTTTTTTTTTGGGTCACTTTCGTCGTCTATAAGACGGAGTCACCTAGTGCAG,8040 fluorescence intensity (a.u.)
17,AGTTTTGTGGATGGGTATAATGACGTTATAACAACGTTTTCGGAGTCACCTAGTGCAG,10200 fluorescence intensity (a.u.)
18,GTGTGTATATTTCAAGATTTTCATTTTACATGTATGAACTCGGAGTCACCTAGTGCAG,8400 fluorescence intensity (a.u.)
19,ACTGGCTTCTATCCTTCTCAAATCTGTCGATATCTAGCTTCGGAGTCACCTAGTGCAG,8140 fluorescence intensity (a.u.)
20,ATCATCACCCATATCCCTACATGGCAACATATATACGTAGCGGAGTCACCTAGTGCAG,8360 fluorescence intensity (a.u.)
21,CATCAGTTTCACACGAATTTTCTTTAATTTAAATTTCCCGCGGAGTCACCTAGTGCAG,9160 fluorescence intensity (a.u.)
22,AGTTATTCCGGCCCACTAGTGATCCTCTCAATTTTACCGACGGAGTCACCTAGTGCAG,8250 fluorescence intensity (a.u.)
23,GAACGAACAACCGCGAACCTTCCTGCGGCTTTCTGATACACGGAGTCACCTAGTGCAG,8420 fluorescence intensity (a.u.)
24,CTGTTTATTGTTTATTACGTTCCATGCGAAAACTTTCTATCGGAGTCACCTAGTGCAG,11600 fluorescence intensity (a.u.)
25,CCTTTTCGTTTCTGTTTTTTTGAGATTTTTATTTAAATTTCGGAGTCACCTAGTGCAG,8140 fluorescence intensity (a.u.)
26,CTCAGTTGCCCGACTTACTATAACATTGATTGTTATGTCACGGAGTCACCTAGTGCAG,11000 fluorescence intensity (a.u.)
27,CGCTATTCTCAATAATAAGGCAATGCCACACTGTAGTCAACGGAGTCACCTAGTGCAG,8200 fluorescence intensity (a.u.)

# A section taken from the entries so far, as a working copy:
row,Sequence,binding signal
4,CGACCTGCATATCACTGTACATAAGCTCAAGTTTTAAATCCGGAGTCACCTAGTGCAG,8760 fluorescence intensity (a.u.)
5,CAACAAACTATTCTTTGCTGTGTCCATTTGTTTCCATTCCCGGAGTCACCTAGTGCAG,10400 fluorescence intensity (a.u.)
